Marks after values point to notes of the source that are not given here.
Tests used:
[1] = system: nalidixic acid-resistant Salmonella typhimurium TA98 strain (nal^r); test: Mutagenicity, reverse mutation assay
Excerpt: As for antibacterial agents, assessment of mutagenicity using bacteria is somewhat difficult because of their activity on the test bacteria.

in vivo = conditions: mouse, iv

## O=C(O)c1cn(C2CC2)c2cc(N3CCNCC3)c(F)cc2c1=O [CFLX, Ciprofloxacin]
[1]; 0.05 µg/plate, S9-mix +
  His^+ revertants per plate: 47
[1]; 0.05 µg/plate, S9-mix -
  His^+ revertants per plate: 28
[1]; 0.1 µg/plate, S9-mix +
  His^+ revertants per plate: 76
[1]; 0.1 µg/plate, S9-mix -
  His^+ revertants per plate: 44
[1]; 0.5 µg/plate, S9-mix +
  His^+ revertants per plate: 103
[1]; 0.5 µg/plate, S9-mix -
  His^+ revertants per plate: 47
[1]; 1.0 µg/plate, S9-mix +
  His^+ revertants per plate: 30*
[1]; 1.0 µg/plate, S9-mix -
  His^+ revertants per plate: 55
[1]; 5.0 µg/plate, S9-mix +
  His^+ revertants per plate: 0*
[1]; 5.0 µg/plate, S9-mix -
  His^+ revertants per plate: 0*
[1]; within measurable concentration, with and without the drug metabolic activation
  His revertant colonies compared with the solvent control: 2 fold
In vivo
  LD50: 231 mg/kg
